Experiment: Vapor-liquid equilibrium still, trichloroethylene-2-butanol azeotrope with extractive distillation agent
Assay type: physicochemical
Settings: trichloroethylene from 2-butanol, Table 7
Description: The data in Tables 2, 3, 5, 7, 8, 10 and 11 was obtained in a vapor-liquid equilibrium still. In every case, the starting mixture was the trichloroethylene-butanol azeotrope. The relative volatilities are listed for each of the agents.
Seventy grams of the trichloroethylene-2-butanol azeotrope and 30 grams of 2-methyl-1-pentanol were charged to the vapor-liquid equilibrium still and refluxed for two hours.

SMILES: CC(C)CC(C)O (stereo not shown) [4-Methyl-2-pentanol]
- Relative Volatility: 1.75
